In paper PMC4192509:

Assays:
TPP1(WT)-3xHA (human) [1] = assay: co-IP; HEK293T extracts 48 h post-transfection; 10 mM Tris/HCl pH 8.0, 150 mM NaCl, 2 mM MgCl2, Nonidet P-40; anti-FLAG affinity gel, anti-HA-agarose or anti-USP7 with Protein G-Sepharose, 4 h at 4 °C; Western blot
TPP1(WT)-3xHA (human) [2] = assay: pull-down; binding assay: purified TPP1 constructs held on anti-HA-agarose beads (pre-incubated with purified USP7(WT)-3xFLAG or buffer, 2 h 37 °C); purified proteins added in 25 mM Tris/HCl pH 8.0, 150 mM NaCl, 2 mM MgCl2 with 0.2 μg/μl BSA, 2 h at 4 °C; Western blot; both purified
[3] = target: TPP1(WT)-3xHA-His (human); assay: as above

Measured: binding

B1: TIN2–3xFLAG (protein, UniProt Q9BSI4 1-451)
chain: MATPLVAGPAALRFAAAASWQVVRGRCVEHFPRVLEFLRSLRAVAPGLVRYRHHERLCMGLKAKVVVELILQGRPWAQVLKALNHHFPESGPIVRDPKATKQDLRKILEAQETFYQQVKQLSEAPVDLASKLQELEQEYGEPFLAAMEKLLFEYLCQLEKALPTPQAQQLQDVLSWMQPGVSITSSLAWRQYGVDMGWLLPECSVTDSVNLAEPMEQNPPQQQRLALHNPLPKAKPGTHLPQGPSSRTHPEPLAGRHFNLAPLGRRRVQSQWASTRGGHKERPTVMLFPFRNLGSPTQVISKPESKEEHAIYTADLAMGTRAASTGKSKSPCQTLGGRALKENPVDLPATEQKENCLDCYMDPLRLSLLPPRARKPVCPPSLCSSVITIGDLVLDSDEEENGQGEGKESLENYQKTKFDTLIPTLCEYLPPSGHGAIPVSSCDCRDSSRPL
binds: all assays above

No constants are given. Whether binding was seen depends on the method and setting. A result given as binding can be weak or reduced; the word gives no strength. Where a sequence is shown, tags or fusion partners need not be part of it. For part of these data: Binding seen in cells or lysates may run through a third protein.
